Results deposited as PubChem BioAssay AID743121 (NCATS, 2013)

Screen: 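Knock-downs that sensitise breast cancer cells to camptothecin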 (primary screen)
Cells: MDA-MB-231 cells, a human breast cancer line
Reagents: single siRNA against human genes, 20 nM siRNA (0.8 pmol per well)
Time to read-out: 120 h (drug added 48 h after transfection, read 72 h later)
Conditions: camptothecin 20 nM (about EC30) for 72 h; vehicle 0.1% DMSO in parallel plates
Detection: 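Cell viability by ATP luminescence (CellTiter-Glo) as % of non-targeting siRNA wells, and the log2 ratio of viability without drug over viability with camptothecin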
Direction: log2 vehicle/camptothecin viability: higher = stronger sensitisation to camptothecin; viability with camptothecin and viability without drug: higher = more viable cells
Active means: 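Active genes have an RSA gene-level p-value below 0.001, computed from the ratios of their separate siRNAs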
Here is one part, drawn at random, of about 26,000 reagents. 167 of all reagents (0.63%) were called active. 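Calls are per gene from RSA p-values that are not deposited; an individual active-marked siRNA can sensitise only weakly.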 A number with no mark means an inactive call. Reagents against one gene are numbered here. Reagent sequences are not shown.

| Target gene | reagent no. | log2 vehicle/camptothecin viability | viability with camptothecin (% of control) | viability without drug (% of control) |
| --- | --- | --- | --- | --- |
| CRELD2 (CRELD disulfide isomerase 2) | 1 | -0.0647 | 91.4 | 87.4 |
| CRELD2 (CRELD disulfide isomerase 2) | 2 | -0.343 | 94 | 74.1 |
| CRELD2 (CRELD disulfide isomerase 2) | 3 | 0.0379 | 106 | 109 |
| CRELD2 (CRELD disulfide isomerase 2) | 4 | 0.12 | 79.6 | 86.5 |
| NUPR1 (nuclear protein 1, transcriptional regulator) | 1 | 1.18 | 18 | 40.9 |
| NUPR1 (nuclear protein 1, transcriptional regulator) | 2 | -0.132 | 97.5 | 89 |
| NUPR1 (nuclear protein 1, transcriptional regulator) | 3 | -0.0223 | 58.6 | 57.7 |
| NUPR1 (nuclear protein 1, transcriptional regulator) | 4 | 0.0799 | 33.9 | 35.9 |
| CYTL1 (cytokine like 1) | 1 | -0.124 | 36.3 | 33.3 |
| CYTL1 (cytokine like 1) | 2 | -0.11 | 103 | 95.7 |
| CYTL1 (cytokine like 1) | 3 | 0.296 | 78.7 | 96.6 |
| CYTL1 (cytokine like 1) | 4 | -0.176 | 81.7 | 72.3 |
| APOH (apolipoprotein H) | 1 | -0.104 | 85.5 | 79.5 |
| APOH (apolipoprotein H) | 2 | -0.395 | 50.4 | 38.3 |
| APOH (apolipoprotein H) | 3 | -0.115 | 58.6 | 54.1 |
| APOH (apolipoprotein H) | 4 | -0.247 | 86.9 | 73.3 |
| TSSK1B (testis specific serine kinase 1B) | 1 | -0.239 | 77.7 | 65.8 |
| TSSK1B (testis specific serine kinase 1B) | 2 | -0.335 | 134 | 106 |
| TSSK1B (testis specific serine kinase 1B) | 3 | -0.426 | 114 | 85.1 |
| TSSK1B (testis specific serine kinase 1B) | 4 | -0.0148 | 94 | 93 |
| LYPD3 (LY6/PLAUR domain containing 3) | 1 | 0.114 | 61.8 | 66.8 |
| LYPD3 (LY6/PLAUR domain containing 3) | 2 | -0.189 | 73.5 | 64.5 |
| LYPD3 (LY6/PLAUR domain containing 3) | 3 | 0.221 | 30.2 | 35.2 |
| LYPD3 (LY6/PLAUR domain containing 3) | 4 | 0.126 | 66.3 | 72.3 |
| HDAC9 (histone deacetylase 9) | 1 | 0.0405 | 71.9 | 73.9 |
| HDAC9 (histone deacetylase 9) | 2 | 0.132 | 84.6 | 92.7 |
| HDAC9 (histone deacetylase 9) | 3 | 0.882 | 36 | 66.4 |
| NEK7 (NIMA related kinase 7) | 1 | 0.0842 | 31.5 | 33.4 |
| NEK7 (NIMA related kinase 7) | 2 | 0.567 | 73.6 | 109 |
| NEK7 (NIMA related kinase 7) | 3 | -0.116 | 106 | 97.6 |
| UBE2A (ubiquitin conjugating enzyme E2 A) | 1 | -0.197 | 103 | 90 |
| UBE2A (ubiquitin conjugating enzyme E2 A) | 2 | -0.208 | 71.8 | 62.2 |
| UBE2A (ubiquitin conjugating enzyme E2 A) | 3 | -0.222 | 92.8 | 79.6 |
| UBE2A (ubiquitin conjugating enzyme E2 A) | 4 | 0.0343 | 49.8 | 51 |
| HSPA14 (heat shock protein family A (Hsp70) member 14) | 1 | -0.0714 | 113 | 108 |
| HSPA14 (heat shock protein family A (Hsp70) member 14) | 2 | -0.418 | 96.9 | 72.5 |
| HSPA14 (heat shock protein family A (Hsp70) member 14) | 3 | 0.117 | 82 | 89 |
| HSPA14 (heat shock protein family A (Hsp70) member 14) | 4 | 1.1 | 36.2 | 77.7 |
| WFS1 (wolframin ER transmembrane glycoprotein) | 1 | -0.244 | 65.8 | 55.6 |
| WFS1 (wolframin ER transmembrane glycoprotein) | 2 | -0.106 | 65.4 | 60.8 |
| WFS1 (wolframin ER transmembrane glycoprotein) | 3 | -0.449 | 61.5 | 45.1 |
| WFS1 (wolframin ER transmembrane glycoprotein) | 4 | 0.543 | 37.3 | 54.4 |
| KCNJ5 (potassium inwardly rectifying channel subfamily J member 5) | 1 | -0.124 | 47.5 | 43.6 |
| KCNJ5 (potassium inwardly rectifying channel subfamily J member 5) | 2 | -0.589 | 110 | 73.1 |
| KCNJ5 (potassium inwardly rectifying channel subfamily J member 5) | 3 | 0.0143 | 110 | 111 |
| AUP1 (AUP1 lipid droplet regulating VLDL assembly factor) | 1 | -0.195 | 74 | 64.7 |
| AUP1 (AUP1 lipid droplet regulating VLDL assembly factor) | 2 | -0.268 | 70.3 | 58.4 |
| AUP1 (AUP1 lipid droplet regulating VLDL assembly factor) | 3 | -0.137 | 93.2 | 84.8 |
| AP2B1 (adaptor related protein complex 2 subunit beta 1) | 1 | -0.593 | 58.5 | 38.8 |
| AP2B1 (adaptor related protein complex 2 subunit beta 1) | 2 | -0.284 | 54.5 | 44.8 |
| AP2B1 (adaptor related protein complex 2 subunit beta 1) | 3 | -0.359 | 91.3 | 71.2 |
| AP2B1 (adaptor related protein complex 2 subunit beta 1) | 4 | -0.00932 | 101 | 100 |
| KSR2 (kinase suppressor of ras 2) | 1 | -0.207 | 119 | 103 |
| KSR2 (kinase suppressor of ras 2) | 2 | 0.164 | 74 | 82.9 |
| KSR2 (kinase suppressor of ras 2) | 3 | -0.479 | 107 | 76.4 |
| KSR2 (kinase suppressor of ras 2) | 4 | -0.0918 | 55.7 | 52.3 |
| FFAR4 (free fatty acid receptor 4) | 1 | -0.087 | 105 | 98.7 |
| FFAR4 (free fatty acid receptor 4) | 2 | -0.156 | 103 | 92.4 |
| FFAR4 (free fatty acid receptor 4) | 3 | 0.00775 | 75.6 | 76 |
| FFAR4 (free fatty acid receptor 4) | 4 | -0.212 | 109 | 94.2 |
| EIF2D (eukaryotic translation initiation factor 2D) | 1 | -0.27 | 51.7 | 42.9 |
| EIF2D (eukaryotic translation initiation factor 2D) | 2 | -0.09 | 74.8 | 70.3 |
| EIF2D (eukaryotic translation initiation factor 2D) | 3 | -0.296 | 55.9 | 45.5 |
| EIF2D (eukaryotic translation initiation factor 2D) | 4 | -0.549 | 117 | 80.2 |
| RAET1G (retinoic acid early transcript 1G) | 1 | 0.133 | 37.8 | 41.4 |
| RAET1G (retinoic acid early transcript 1G) | 2 | 0.173 | 65.5 | 73.9 |
| RAET1G (retinoic acid early transcript 1G) | 3 | -0.509 | 63.9 | 44.9 |
| RAB33B (RAB33B, member RAS oncogene family) | 1 | -0.544 | 103 | 70.7 |
| RAB33B (RAB33B, member RAS oncogene family) | 2 | -0.0243 | 56.4 | 55.4 |
| RAB33B (RAB33B, member RAS oncogene family) | 3 | 0.102 | 54.6 | 58.6 |
| IL16 (interleukin 16) | 1 | 0.161 | 93.1 | 104 |
| IL16 (interleukin 16) | 2 | -0.098 | 11.3 | 10.6 |
| IL16 (interleukin 16) | 3 | -0.0413 | 54.9 | 53.3 |
| VAV3 (vav guanine nucleotide exchange factor 3) | 1 | -0.0852 | 84.3 | 79.5 |
| VAV3 (vav guanine nucleotide exchange factor 3) | 2 | -0.125 | 103 | 94.5 |
| VAV3 (vav guanine nucleotide exchange factor 3) | 3 | -0.303 | 106 | 85.9 |
| VAV3 (vav guanine nucleotide exchange factor 3) | 4 | 0.295 | 42.9 | 52.6 |
| VAV3 (vav guanine nucleotide exchange factor 3) | 5 | 0.186 | 44.4 | 50.5 |
| VAV3 (vav guanine nucleotide exchange factor 3) | 6 | -0.133 | 98.1 | 89.4 |
| VAV3 (vav guanine nucleotide exchange factor 3) | 7 | 0.0637 | 82 | 85.7 |
| VAV3 (vav guanine nucleotide exchange factor 3) | 8 | -0.42 | 72.2 | 53.9 |
| NLRP1 (NLR family pyrin domain containing 1) | 1 | -0.104 | 64.7 | 60.2 |
| NLRP1 (NLR family pyrin domain containing 1) | 2 | 0.304 | 14.7 | 18.1 |
| NLRP1 (NLR family pyrin domain containing 1) | 3 | -0.145 | 113 | 102 |
| NLRP1 (NLR family pyrin domain containing 1) | 4 | -0.332 | 111 | 88.5 |
| DHRS7 (dehydrogenase/reductase 7) | 1 | 0.259 | 87.4 | 105 |
| DHRS7 (dehydrogenase/reductase 7) | 2 | -0.763 | 109 | 64.4 |
| DHRS7 (dehydrogenase/reductase 7) | 3 | -0.279 | 75.2 | 62 |

Entries above whose gene name starts with D or d:
| Target gene | reagent no. | log2 vehicle/camptothecin viability | viability with camptothecin (% of control) | viability without drug (% of control) |
| --- | --- | --- | --- | --- |
| DHRS7 (dehydrogenase/reductase 7) | 1 | 0.259 | 87.4 | 105 |
| DHRS7 (dehydrogenase/reductase 7) | 2 | -0.763 | 109 | 64.4 |
| DHRS7 (dehydrogenase/reductase 7) | 3 | -0.279 | 75.2 | 62 |
